{"sequences": {"note": "Chains of the proteins cited; added tags and fusions are not shown. Residues count along the entry.", "UniProt Q13485, residues 319-552": "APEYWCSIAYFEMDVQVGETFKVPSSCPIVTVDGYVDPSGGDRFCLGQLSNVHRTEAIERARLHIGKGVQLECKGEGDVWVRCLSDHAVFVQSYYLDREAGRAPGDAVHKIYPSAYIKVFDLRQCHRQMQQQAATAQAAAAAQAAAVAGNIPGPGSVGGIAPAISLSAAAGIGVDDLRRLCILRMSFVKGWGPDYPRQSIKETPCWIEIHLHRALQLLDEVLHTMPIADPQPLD", "UniProt P84022, residues 219-425": "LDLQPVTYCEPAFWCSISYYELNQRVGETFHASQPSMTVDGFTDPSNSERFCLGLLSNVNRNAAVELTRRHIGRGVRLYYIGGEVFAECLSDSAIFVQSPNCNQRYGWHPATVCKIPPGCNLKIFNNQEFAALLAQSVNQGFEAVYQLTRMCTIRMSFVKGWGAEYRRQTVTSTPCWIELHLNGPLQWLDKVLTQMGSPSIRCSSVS"}, "source": "paper PMC11063955", "about": "“A multiplexed time-resolved fluorescence resonance energy transfer ultrahigh-throughput screening assay for targeting the SMAD4–SMAD3–DNA complex” (Journal of Molecular Cell Biology, 2023)", "molecular_target": "GST-SMAD4-MH2 (UniProt Q13485)", "test": "pull-down; GST pull-down from lysates of HEK293T cells transfected with both partners; 1% NP-40 lysis buffer; lysates incubated with compounds (GA or GNA, or control) for 16 h at 4°C, then glutathione-conjugated beads 2 h at 4°C; western blot with anti-FLAG-HRP and anti-GST-HRP; no DNA oligonucleotides", "note": "Results are given in words; binding and its absence hold for the method and conditions named. Binding seen in cells or lysates may run through a third protein. Some binding calls cover weakened binding; strength is not graded here.", "data": [{"substance": "Venus-flag-SMAD3-MH2 (from UniProt P84022 219-425) (domain or fragment)", "values": [{"measurement": "binding", "result": "binds"}]}]}
